In all, about 52,000 sequences went through this assay and about 210 (0.4%) were called active.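 Rule for the calls: active = gene whose silencing raises cell survival under the drug, median off-target-corrected z-score across its silencing RNAs 2 or more; inactive = the rest.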 Some of the results follow.
Test: Resistance to Poly (ADP-Ribose) Polymerase inhibitor: Gene Identification via Genome-wide siRNA Screen
Conditions: mouse BRCA2 R2336H ES cells, olaparib, CellTiter-Glo viability; active compounds read high
In short: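 Genome-wide siRNA screen (3 siRNAs/gene, 20 nM) in mouse ES cells carrying hypomorphic BRCA2 R2336H; olaparib 500 nM added 48 h post-transfection, CellTiter-Glo viability 72 h later. Normalized to plate-median negative control; MAD z-scores, gene median, seed-adjusted.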

| Sequence | z-score |
| --- | --- |
| CGGAUCACAUUGCAUAAAATT against Calcrl | inactive: 0.747 |
| GGCAUGUCCAAGGAAUACUTT against Snrpg | inactive: -0.248 |
| CCGUAUAAGAAGCUUUGUUTT against F730015K02Rik | inactive: -0.787 |
| GUACCUGAACUCAACUGAGTT against Gpr43 | inactive: -2.14 |
| CGAAUUCAUACCAGUGUGCTT against Ndufa10 | inactive: -0.486 |
| GGGCACAACUUCAACAGCUTT against Cklfsf8 | inactive: 1.53 |
| GGGUUUAGAAAGAUGAAUGTT against E130107N23Rik | inactive: -0.397 |
| GGUCGGUGUUUUAUCUGCUTT against BC019537 | inactive: -1.19 |
| GGUCCUACAGUCCAUAGGUTT against B230374F23Rik | inactive: 0.542 |
| CCCUCUCUGGGACUACAUATT against Zfp395 | inactive: -1.48 |
| GGCUACUCAGUCCUAAGCATT against Kcns2 | inactive: -0.384 |
| CCGUCAGAAUCAAGCUUUUTT against MGC86034 | inactive: -1.1 |
| GUGUGCUAUGAGCAAUGCCTT against Sprr2a | inactive: 1.14 |
| GGUAAAUCUCAGCUUUUCUTT against Pcdhga3 | inactive: 0.868 |
| GGCAGAUUUAGUUUCUUUUTT against A930026L03Rik | inactive: 1.28 |
| CGAACAGAUCCGAAAAUCUTT against 4933430J11 | inactive: -0.699 |
| GCGAGUGAUAAGACAGCCATT against LOC208158 | inactive: -0.501 |
| CUUACAGCCCUUAUUGGAGTT against Olfr1203 | inactive: 0.0972 |
| GGGUGGCAUCAUGCAAAGATT against Hdac8 | inactive: 1.28 |
| GCACCUCUUGGACAAAAUUTT against Tsc1 | inactive: -0.196 |
| GGAAAAACUCCUUUUCCACTT against Shcbp1 | inactive: 0.251 |
| GGUUUAAGAAUGAAGUGGATT against Mtmr3 | inactive: -0.196 |
| GGAAGAAAAGGUAUUUCUUTT against Rpo2tc1 | inactive: -2.74 |
| GCGACUCCUAUAAUUUCUATT against Rpa3 | inactive: -0.154 |
| GGAUGUGACGCACACAUGUTT against 5730403B10Rik | inactive: -0.0428 |
| GGAUUUCAAAUCAAGAUGGTT against Tde1 | inactive: 1.03 |

| Sequence | z-score |
| --- | --- |
| GGCACACACUCCCUGACAATT against Cst3 | inactive: 0.688 |
| CCUGCUCAACGGAGACCAUTT against Hmx3 | inactive: 0.71 |
| AUCGUAUUGCUCUUUUACGTT against Gm1705 | inactive: 0.452 |
| GGAAGUCACUAAUGAAAUGTT against Tbx19 | inactive: 0.719 |
| GCUGGGAAAUCACACUAAGTT against Olfr1427 | inactive: 0.342 |
| GGUGGCCAAGAAAACAUGUTT against Rims3 | inactive: -0.503 |
| GGGCAGAAUCCAUUGACAATT against 2210412K09Rik | inactive: -0.485 |
| GGCUUAGUUGGCUAUUACATT against Tbc1d12 | inactive: -2.07 |
| GGGCCCAUCUUUUUCUACATT against Dpp7 | inactive: -0.145 |
| GCCUGAUCUACUGUGGUCCTT against Olfr1347 | inactive: 0.259 |
| GGCUCAGUUAAACUUACUGTT against Pak2 | inactive: -0.198 |
| GCUGAAUGCGACAUUUAUATT against Hk2 | inactive: 1.81 |
| CCUUAAGAUGAGCAUUGCUTT against Chchd5 | inactive: -0.116 |
| GCAUCGCUAAUCCUGAGUUTT against Itgb2 | inactive: 0.9 |
| GGUUCACCUGGAUUCUGCATT against Sfrs16 | inactive: -1.62 |
| GGUCUCUAAAUCCUGCUUUTT against V1rc28 | inactive: 0.0164 |
| GGCAGAGAAAAGAAGAAGATT against Abcb4 | inactive: -1.54 |
| GCGAUGGAACUGUACGAGATT against 1810034K20Rik | inactive: 0.046 |
| GGAUGCAUGGCUCAAUAUUTT against Olfr1164 | inactive: -1.53 |
| GGAGGUCAGUGUGACUUCATT against Taf1c | inactive: -2.82 |
| GGCUCAGAUGUAUUUCAAATT against 2610529C04Rik | inactive: -0.391 |
| GGAUCGUUUCCUCUCAUCATT against Cd4 | inactive: -0.361 |
| GCUGUUCUAUCAGACCUUUTT against Cyp2b10 | inactive: 1.07 |
| GGAGUUCCCGCUUACUCUGTT against 9430022A14 | inactive: 0.636 |
| GGCAAAAUCGGAGACUUUCTT against Exosc10 | inactive: 0.0473 |
| GGUUGCUAGUGCUAAGGACTT against Pdlim2 | inactive: -1.8 |

| Sequence | z-score |
| --- | --- |
| GGAGCAAACUUGCUCAGUUTT against 4922504H04Rik | inactive: -1.78 |
| GGUUUUGGGCACAGCUGGUTT against Cryz | inactive: 1.79 |
| GCGAGCCUUUGAGAAGAAUTT against Emx1 | inactive: 0.661 |
| GGGACAUGAAAUAAAUGUCTT against Mag | inactive: -0.658 |
| GGGAGUCCUUAAAAGUCGUTT against Mas1 | inactive: -1.14 |
| GGGAUAAAAACAGUGGCUUTT against Slc7a12 | inactive: -0.204 |
| GGCAUGUUUUGGGAAGAGCTT against Btbd6 | inactive: 1.52 |
| GGAAAAUCAGACCAUACUGTT against Arl3 | inactive: -1.98 |
| GGUUGUUCAGAUCUUCUGATT against Cias1 | inactive: 0.0572 |
| GCAAUAACUGGAAUAAUGGTT against Slc40a1 | inactive: 0.685 |
| CCAUUCUCCCGAGAAACUATT against Ela2 | inactive: 0.263 |
| GGCGAUGAAGAAGUAAUUUTT against Dip3b | inactive: -1.21 |
| CCUUACCACAGCCUCAAUGTT against 6.33E+19 | inactive: -0.556 |
| GGACAUAAAGGUAAAAUGATT against Zfp275 | inactive: -1.02 |
| CCACCAAGGAGACAUAGAUTT against Nans | inactive: 0.745 |
| GGAGAGGUCAGAAUAAUAATT against BC020151 | inactive: -1.91 |
| CGGAUUAGAAGAGCCAAACTT against Cd59b | inactive: -0.462 |
| CGAGAUUGCCAAGGCUCAATT against Hint1 | inactive: 0.374 |
| GGCAAAGUAUAAAGAAGUATT against Gkap1 | inactive: 4.97 |
| GCUGGUUUCGGACAUAGCCTT against Actn3 | inactive: 1.54 |
| GGAGGAGCUUAGCCCUUUUTT against Bad | inactive: 0.77 |
| GGAACACAUUGGGUAUGCCTT against 2410004C24Rik | inactive: -0.788 |
| GGCAUCAGUGAGGUUUGUCTT against Olfr420 | inactive: -1.12 |
| GGACCGACCAAGUUUUUCATT against 2410018G23Rik | inactive: -0.329 |
| GGACGAUCAUGACAAGAUGTT against Psmb2 | inactive: -3.45 |
| GCUCGAAAACUGAGAGUUATT against Pcdhgb1 | inactive: 1.92 |

| Sequence | z-score |
| --- | --- |
| CCAAGAUACCUUUUUUGAGTT against Paox | inactive: 1.31 |
| GGUUCAGAAGAGUCAGGAGTT against 5730551F12Rik | inactive: -0.378 |
| GGAAUUAUGUGGAAAACAGTT against Mapk9 | inactive: 0.0447 |
| GGGUCAAAUCUGCUUUUUCTT against Olfr272 | inactive: -1.16 |
| GGUUAUGGAGACAAAGGAUTT against Snf1lk | inactive: -1.66 |
| GGACACAGAUGCUUUCUUGTT against 1700030A21Rik | inactive: 1.35 |
| GCGGUCGUUGGCAAAAACUTT against Commd8 | inactive: 0.629 |
| GGUCUACAACCAAAUCUGCTT against Clecsf12 | inactive: 1.43 |
| GGACUGCAUCCAAAUUCCATT against Dnclc1 | inactive: 1.01 |
| CCAUGGAUGUAUGAGACUGTT against H2-M1 | inactive: -1.41 |
| GGUCUUAAACAGUUACAUGTT against Dmtf1 | inactive: -0.417 |
| GGUGAUUUCUUUGUGUGAUTT against Rpl22 | inactive: -1.95 |
| GGAAUGAAAAGGUAUGUGATT against D11Ertd498e | inactive: 1.64 |
| GGGAUAGCUGUCUUUCAUUTT against Extl3 | inactive: -2.09 |
| GGCAUUCUUCAAGAGGACGTT against Esrrg | inactive: -0.576 |
| CGUAGGAAUGAUCACAUUGTT against Olfr1136 | inactive: -2.32 |
| GCAGCACUGGAAUAUUUGGTT against 5730469M10Rik | inactive: -1.06 |
| GGCCUGAGAUCGAUCAUUCTT against Plcb4 | inactive: 0.216 |
| GCACAGAUAAAACUAACUATT against Kcna7 | inactive: 0.834 |
| GGAAAGAGAAGAAAACAAATT against Tmem25 | inactive: 0.471 |
| GGUGACUGUCCUGAACUAUTT against 2600010E01Rik | inactive: -0.0999 |
| GGGAGAACUAUCACCAUAATT against Wdr11 | inactive: -1.24 |
| GGGAAAAGAUUCAGCUAGATT against Ntn4 | inactive: -1.25 |
| GGGCACGGUAUUCCAUUUCTT against Tex292 | inactive: -0.32 |
| GCCAUAACCUAAGACUUUATT against Adcyap1r1 | inactive: -0.209 |
| CCAAGGGACACAUGCCAGATT against Olfr714 | inactive: 0.213 |

Shown bar-delimited: part of the list above.
Sequence | z-score
GGUUCAGAAGAGUCAGGAGTT against 5730551F12Rik | inactive: -0.378
GGUUAUGGAGACAAAGGAUTT against Snf1lk | inactive: -1.66
GGACACAGAUGCUUUCUUGTT against 1700030A21Rik | inactive: 1.35
GGUCUACAACCAAAUCUGCTT against Clecsf12 | inactive: 1.43
GGACUGCAUCCAAAUUCCATT against Dnclc1 | inactive: 1.01
CCAUGGAUGUAUGAGACUGTT against H2-M1 | inactive: -1.41
GGUCUUAAACAGUUACAUGTT against Dmtf1 | inactive: -0.417
GGUGAUUUCUUUGUGUGAUTT against Rpl22 | inactive: -1.95
GGAAUGAAAAGGUAUGUGATT against D11Ertd498e | inactive: 1.64
GGGAUAGCUGUCUUUCAUUTT against Extl3 | inactive: -2.09
GGCAUUCUUCAAGAGGACGTT against Esrrg | inactive: -0.576
CGUAGGAAUGAUCACAUUGTT against Olfr1136 | inactive: -2.32
GCAGCACUGGAAUAUUUGGTT against 5730469M10Rik | inactive: -1.06
GGCCUGAGAUCGAUCAUUCTT against Plcb4 | inactive: 0.216
GCACAGAUAAAACUAACUATT against Kcna7 | inactive: 0.834
GGAAAGAGAAGAAAACAAATT against Tmem25 | inactive: 0.471
GGUGACUGUCCUGAACUAUTT against 2600010E01Rik | inactive: -0.0999
GGGAGAACUAUCACCAUAATT against Wdr11 | inactive: -1.24
GGGAAAAGAUUCAGCUAGATT against Ntn4 | inactive: -1.25
GCCAUAACCUAAGACUUUATT against Adcyap1r1 | inactive: -0.209
CCAAGGGACACAUGCCAGATT against Olfr714 | inactive: 0.213

Reference: PubChem BioAssay AID1347423 (Functional Genomics Laboratory (NCATS/FGL), 2020)
